From patent publication US6518397B1, “Pharmaceuticals for modulating hormone responsiveness” (priority 1995, dated 2003)
These are yes or no findings as the source states them, for the method shown. Some results given as binding are weak or reduced against the parent protein; the word gives no strength.

Protein sequences, listed by entry. Tags and fused reporters are not part of them. Residues count along the entry.
UniProt P15207, residues 533-637: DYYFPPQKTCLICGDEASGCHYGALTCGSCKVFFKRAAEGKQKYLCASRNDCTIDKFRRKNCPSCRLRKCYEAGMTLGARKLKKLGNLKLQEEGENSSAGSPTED

Target: DNA binding domain of recombinant rat androgen receptor, GST-fusion protein (rat) (UniProt P15207)
Experiment: gel retardation

- binding: binds
Substance: p60 (calreticulin) purified from human osteosarcoma (HOS) cells by affinity chromatography on KLGFFKR-sepharose (from UniProt P27797 18-417)
